Source: patent US20030170890A1, “Pathologically modified myocardial cell, production and use thereof” (priority 1999, published 2003)
For at least one compound, name, drawing or mass did not settle the structure.

Tested on: cardiomyocytes from the neonatal rat
Experiment: Effect of inhibitors on DCMAG-1 translocation in the immunofluorescence test
Type: cell-based
Settings: cells stimulated with LIF, ISO and ET-1
Method: Neonatal rat cardiomyocytes were prepared as in Example 3 and seeded in a density of 1×10^5 cells per 1.5 cm well (reaction chamber in a cell culture dish). The cell culture dishes contained 1.5 cm cover glasses (Schubert und Weiβ) coated with 1% gelatin solution. The cells were incubated after 24 hours with DMEM and subsequently in maintenance medium with or without stimulus (LIF/ISO and ET-1, concentration as above for single dosage) for 48 hours.
In order to determine the signal transduction pathways required for translocation of DCMAG-1, the stimulated cells were incubated with inhibitors, namely 30 μM LY294002 (Sigma), 50 μM SB 203580 (Sigma), 15 nM Go 6976 (Alexis) or 50 μM PD98059 (NEB) for 48 h (after 24 h, the medium and inhibitors were renewed because the activity of the inhibitors was limited to 24 h in aqueous solution).
After 48 h, the cells were fixed with 4% paraformaldehyde, permeabilized with 0.2% Triton-X100 and stained with anti-DCMAG (polyclonal, own production, 1:500) or α-actinin (as control, Sigma, 1:500) and visualized with anti-mouse or anti-rabbit Cy3 (Jackson Labs, USA) in immunofluorescence. In order to measure the effect of the inhibitors, the cells were visually classified and counted.

`O=c1cc(N2CCOCC2)oc2c(-c3ccccc3)cccc12` [LY, LY294002] was tested, and the “effect on translocation of DCMAG-1 into the sarcomere (in words)” value was “reducing the translocation”.
